For the assay, the system named is BDF1 mice, Lewis lung carcinoma iv, survival T/C. Briefly: NCI In Vivo Anticancer Drug Screen. Data for tumor model Lewis Lung Carcinoma (intravenous) in B6D2F1 (BDF1) mice. Particulars: T/C endpoint: median survival time, higher T/C = longer survival. As for the experimental part: The antitumor activity of compounds was measured in mice bearing transplantable tumors. Survival or tumor size were measured and the results are expressed as the measurement made in the treated group (T) divided by the measurement made in the vehicle treated control group (C). The tumor model used in this assay is Lewis Lung Carcinoma (intravenous) in B6D2F1 (BDF1) mice

For four molecules, T/C and survivor count results are on record in PubChem BioAssay AID274 (DTP/NCI, 2004).

The list does not hold the whole screen: it gathers some chemical classes. Other doses and runs of a compound may be missing. T/C is the treated group as % of the vehicle group. Some doses have a count of surviving animals in place of a T/C: the source holds a T/C of zero for them, seemingly a mark for toxic or unscored doses. Some doses without a T/C left all or most animals alive at the check, yet need not have been tolerated: the source hardly ever lists a survival T/C far under the control, and the zero likely stands for such cases as well. Survivors were counted at the toxicity check, usually on the fifth day, unless a day is given; later deaths do not show. Schedule codes are those of the source, taken here to give the interval after Q, in days (D) or hours (H), and the number of doses after X. Where survival is the endpoint, this PubChem deposit counts one and a half times the control or more as active, and values a quarter to a half above the control carry no call in these data; other NCI protocols may use other cut-offs. Some entries show no survivor count and are marked so; the dose need not have been tolerated. Some entries were tested several times; the results are listed from low to high.

As to `NC1CCCCC1.NP(=O)(O)N(CCCl)CCCl`, the T/C was 134 % of control (dose: 25.0 mg/kg/injection, schedule: Q01DX001 (ip), vehicle: water); 123 % of control (dose: 50.0 mg/kg/injection, schedule: Q01DX001 (ip), vehicle: water); 93 % of control (dose: 100.0 mg/kg/injection, schedule: Q01DX001 (ip), vehicle: water). Moreover, the survivor count (dose: 200.0 mg/kg/injection, schedule: Q01DX001 (ip), vehicle: water) is on record as 7 of 10.
`CC1=CC(=O)C(N(CCCl)CCCl)=CC1=O`: the T/C is, setting by setting: (dose: 0.78 mg/kg/injection, schedule: Q01DX009 (ip), vehicle: Klucel (hydroxypropylcellulose) (HPC)) 108 % of control [survivor count not shown]; (dose: 1.56 mg/kg/injection, schedule: Q01DX009 (ip), vehicle: Klucel (hydroxypropylcellulose) (HPC)) 116 [survivor count not shown] and 126 % of control [survivor count not shown]; (dose: 3.13 mg/kg/injection, schedule: Q01DX009 (ip), vehicle: Klucel (hydroxypropylcellulose) (HPC)) 129 % of control [survivor count not shown].
`O=NN(CCSCCCl)C(=O)NC1CCCCC1`: the T/C by setting is: (dose: 3.0 mg/kg/injection, schedule: Q01DX009 (ip), vehicle: saline with Tween-80) 98 % of control; (dose: 6.0 mg/kg/injection, schedule: Q01DX009 (ip), vehicle: saline with Tween-80) 108 % of control; (dose: 12.0 mg/kg/injection, schedule: Q01DX009 (ip), vehicle: saline with Tween-80) 97 % of control; (dose: 25.0 mg/kg/injection, schedule: Q01DX009 (ip), vehicle: saline with Tween-80) 108 % of control.
Turning to `C[N+](CCCl)(CCCl)Cc1ccc([N+](=O)[O-])cc1`, the T/C is, setting by setting: (dose: 1.56 mg/kg/injection, schedule: Q01DX009 (ip), vehicle: saline) 105 % of control [survivor count not shown]; (dose: 3.13 mg/kg/injection, schedule: Q01DX009 (ip), vehicle: saline) 98 % of control [survivor count not shown]; (dose: 6.25 mg/kg/injection, schedule: Q01DX009 (ip), vehicle: saline) 104 [survivor count not shown] and 112 % of control [survivor count not shown]; (dose: 12.5 mg/kg/injection, schedule: Q01DX009 (ip), vehicle: saline) 102 % of control [survivor count not shown].
